PubChem BioAssay AID1259254 – NCATS – 2017
Screen: 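Gene knock-downs that lead to re-replication, shown by excess G2 DNA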 (primary screen). Cell system: human HCT116 colorectal cancer cells. Knock-down reagent: single siRNA against human genes. Duration: 3 days. Measurement: 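Nuclei stained with Hoechst and imaged; cell-cycle phase assigned by DNA content; G2 share scaled per plate, non-targeting siRNA 0%, GMNN siRNA 100%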. Direction: G2 robust z-score and G2 cells, % of GMNN control: higher = more G2 cells, more excess DNA replication. Rule for the call: 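An siRNA counts as active if its G2 robust z-score lies at least 5 MADs above the screen median; here such calls match roughly 38% of GMNN control or more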.
Here is an unselected part of about 59,000 reagents tested. About 1,550 of them (2.6%) count as active. 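G2 share is only a proxy for re-replication; each gene was hit by three separate siRNAs, and active genes were retested.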 Unmarked entries are inactive. Reagents against one gene are numbered here. Further read-outs or replicates are left out here. No sequences are given here. The record does not give: the amount of reagent.

How did the screen score ZBTB7B (zinc finger and BTB domain containing 7B) #1?
G2 robust z-score: 0.183; G2 cells, % of GMNN control: 4.25

How did the screen score ZBTB7B (zinc finger and BTB domain containing 7B) #2?
G2 robust z-score: -0.704; G2 cells, % of GMNN control: -1.99

Which result is listed for ZBTB7B (zinc finger and BTB domain containing 7B) #3?
G2 robust z-score: -0.325; G2 cells, % of GMNN control: 0.68

Which result is listed for UBL7 (ubiquitin like 7) #1?
G2 robust z-score: -0.279; G2 cells, % of GMNN control: 1.01

How did the screen score UBL7 (ubiquitin like 7) #2?
G2 robust z-score: 1.8; G2 cells, % of GMNN control: 15.6

Which result is listed for UBL7 (ubiquitin like 7) #3?
G2 robust z-score: -0.877; G2 cells, % of GMNN control: -3.2

For TECPR1 (tectonin beta-propeller repeat containing 1) #1, what does the deposit list?
G2 robust z-score: -0.877; G2 cells, % of GMNN control: -3.21

What did the screen give for TECPR1 (tectonin beta-propeller repeat containing 1) #2?
G2 robust z-score: -0.0721; G2 cells, % of GMNN control: 2.46

How did the screen score TECPR1 (tectonin beta-propeller repeat containing 1) #3?
G2 robust z-score: -0.716; G2 cells, % of GMNN control: -2.07

With NUDT16 (nudix hydrolase 16) #1, what was measured?
G2 robust z-score: -0.565; G2 cells, % of GMNN control: -1.01

How did the screen score NUDT16 (nudix hydrolase 16) #2?
G2 robust z-score: -0.856; G2 cells, % of GMNN control: -3.06

How did the screen score NUDT16 (nudix hydrolase 16) #3?
G2 robust z-score: -0.178; G2 cells, % of GMNN control: 1.71

How did the screen score DNAJC17 (DnaJ heat shock protein family (Hsp40) member C17) #1?
G2 robust z-score: 0.804; G2 cells, % of GMNN control: 8.62

For DNAJC17 (DnaJ heat shock protein family (Hsp40) member C17) #2, what was measured?
G2 robust z-score: -0.702; G2 cells, % of GMNN control: -1.97

How did the screen score DNAJC17 (DnaJ heat shock protein family (Hsp40) member C17) #3?
G2 robust z-score: -0.759; G2 cells, % of GMNN control: -2.37

For OR14J1 (olfactory receptor family 14 subfamily J member 1) #1, what was measured?
G2 robust z-score: 0.427; G2 cells, % of GMNN control: 5.97

What did the screen give for OR14J1 (olfactory receptor family 14 subfamily J member 1) #2?
G2 robust z-score: -0.731; G2 cells, % of GMNN control: -2.18

Which result is listed for OR14J1 (olfactory receptor family 14 subfamily J member 1) #3?
G2 robust z-score: -0.784; G2 cells, % of GMNN control: -2.55

How did the screen score CLCA3P (chloride channel accessory 3, pseudogene) #1?
G2 robust z-score: 5.49 (active); G2 cells, % of GMNN control: 41.6

What is on record for CLCA3P (chloride channel accessory 3, pseudogene) #2?
G2 robust z-score: 1.3; G2 cells, % of GMNN control: 12.1

Which result is listed for CLCA3P (chloride channel accessory 3, pseudogene) #3?
G2 robust z-score: -0.512; G2 cells, % of GMNN control: -0.633

For RGPD2 (RANBP2 like and GRIP domain containing 2) #1, what was measured?
G2 robust z-score: -0.275; G2 cells, % of GMNN control: 1.04

With RGPD2 (RANBP2 like and GRIP domain containing 2) #2, what does the deposit list?
G2 robust z-score: 0.0673; G2 cells, % of GMNN control: 3.44

With RGPD2 (RANBP2 like and GRIP domain containing 2) #3, what was measured?
G2 robust z-score: 5.1 (active); G2 cells, % of GMNN control: 38.9

What is on record for SLC18A3 #1?
G2 robust z-score: 3.59; G2 cells, % of GMNN control: 28.3

Which result is listed for SLC18A3 #2?
G2 robust z-score: -0.743; G2 cells, % of GMNN control: -2.26

With SLC18A3 #3, what does the deposit list?
G2 robust z-score: -1.32; G2 cells, % of GMNN control: -6.3

With CYB5R3 (cytochrome b5 reductase 3) #1, what was measured?
G2 robust z-score: 2.61; G2 cells, % of GMNN control: 21.3

For CYB5R3 (cytochrome b5 reductase 3) #2, what does the deposit list?
G2 robust z-score: 1.97; G2 cells, % of GMNN control: 16.8

For CYB5R3 (cytochrome b5 reductase 3) #3, what does the deposit list?
G2 robust z-score: 1.17; G2 cells, % of GMNN control: 11.2
